# Assay results reported in PMC6925144, “A prospective compound screening contest identified broader inhibitors for Sirtuin 1” (Scientific Reports, 2019).
# By UniProt entry, the sequences of proteins in these tests, tags left out. Residues count along the entry.
# UniProt Q96EB6, 2-747 limits assumed: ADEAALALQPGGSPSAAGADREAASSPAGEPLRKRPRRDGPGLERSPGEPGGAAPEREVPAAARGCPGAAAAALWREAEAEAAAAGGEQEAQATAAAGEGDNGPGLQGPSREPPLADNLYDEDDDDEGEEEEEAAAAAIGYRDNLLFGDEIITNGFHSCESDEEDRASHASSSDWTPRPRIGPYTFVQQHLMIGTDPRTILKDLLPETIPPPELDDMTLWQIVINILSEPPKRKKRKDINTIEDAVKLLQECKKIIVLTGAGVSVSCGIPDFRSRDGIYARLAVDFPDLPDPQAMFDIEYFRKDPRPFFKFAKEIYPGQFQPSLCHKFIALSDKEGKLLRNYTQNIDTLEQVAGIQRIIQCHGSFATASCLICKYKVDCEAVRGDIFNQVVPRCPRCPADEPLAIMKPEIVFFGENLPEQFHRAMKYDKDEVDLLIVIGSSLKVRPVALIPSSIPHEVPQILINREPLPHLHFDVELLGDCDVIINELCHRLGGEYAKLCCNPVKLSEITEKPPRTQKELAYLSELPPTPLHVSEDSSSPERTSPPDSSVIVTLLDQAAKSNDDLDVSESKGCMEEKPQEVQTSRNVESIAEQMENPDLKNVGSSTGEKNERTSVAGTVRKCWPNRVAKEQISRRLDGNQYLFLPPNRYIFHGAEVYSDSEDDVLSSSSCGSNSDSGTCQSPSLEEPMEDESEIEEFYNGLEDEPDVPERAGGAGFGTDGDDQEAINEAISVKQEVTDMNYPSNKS
# In all, about 3,200 compounds were measured (“TSA(with NAD+) / Primary screening (TSA) / delta Tm (K)”: median about -0.04, highest 2% from about 0.37 on). Some of the results follow.
# Target: NAD-dependent deacetylase Sirtuin 1 (human, UniProt Q96EB6)
# Experiment: primary screen, delta tm
# Design: single well (n = 1, as 'the same TSA')
# Settings: 10 µM
row,Structure (SMILES),TSA(with NAD+) / Primary screening (TSA) / delta Tm (K)
1,CCOc1ccc(C2C(C(=O)c3ccco3)=C(O)C(=O)N2CCCN2CCOCC2)cc1 (stereo not drawn),0.01
2,CC1CN(Cc2ccc(F)cc2)CCN1C(C)c1nc(C2CC2)no1 (stereo not drawn),-0.08
3,O=C(Nc1cc(S(=O)(=O)N2CCOCC2)ccc1OCC(F)(F)F)C1=COCCO1,0.01
4,O=C(O)CCSc1ccc(F)cc1,0.06
5,O=C(O)CCn1cnc2sccc2c1=O,-0.14
6,CC(Oc1ccc(F)c(Cl)c1)C(N)=O (stereo not drawn),-0.22
7,Cc1nsc(NCc2cccnc2N2CCC(C(N)=O)CC2)n1,0.09
8,O=C1CCC(C(=O)N(C2CCCC2)C2CC2)N1 (stereo not drawn),-0.01
9,N#Cc1c(Cn2nnc3ccccc3c2=O)cn2ccccc12,-0.09
10,CC(=O)NCCC(=O)C(C#N)C(=O)c1c[nH]c2cc(Cl)ccc12 (stereo not drawn),-0.18
11,COc1cccc(C(=O)C2=C(O)C(=O)N(CCCN3CCOCC3)C2c2ccncc2)c1 (stereo not drawn),-0.21
12,CCOC(=O)c1oc2ccccc2c1COC(=O)Cn1cnnn1,-0.09
13,Cc1nnnn1Cc1cn2c(C)cccc2n1,0.01
14,O=C(NCC1CC1)c1ccc2[nH]c3c(c2c1)CCCCC3,-0.06
15,CC(NC(=O)Cc1cc2ccccc2[nH]c1=O)c1ccc2ccccc2c1 (stereo not drawn),-0.03
16,CCCOc1ccc(C2C(C(=O)c3ccccc3)=C(O)C(=O)N2CCCN2CCOCC2)cc1 (stereo not drawn),-0.03
17,Cc1ccc2[nH]c3c(c2c1)CC(N)CC3 (stereo not drawn),0.25
18,O=C(CSc1nnc(-c2ccccc2)o1)NCCCc1ccccc1,0.15
19,COc1ccc(C(=O)C2=C(O)C(=O)N(CCCN3CCOCC3)C2c2ccccc2)cc1C (stereo not drawn),-0.13
20,O=C(C1CCN(c2cc(=O)n3ccccc3n2)CC1)N1CCCC1,-0.01
21,O=C(Nc1ccc(N2CCN(Cc3ccccc3)CC2)cc1)c1cccc(-n2cnnn2)c1,-0.01
22,NCCC[C@@H](N)C(=O)O,-0.08
23,Cc1nnc(N2CCN(c3ncc(Br)cn3)CC2)c(C(N)=O)c1C,-0.14
24,NCC1(CN)CCCCC1,-0.03
25,O=C(Nc1cccc(S(=O)(=O)N2CCOCC2)c1)C1=COCCO1,-0.12

row,Structure (SMILES),TSA(with NAD+) / Primary screening (TSA) / delta Tm (K)
1,C[C@@H](N)CCO,-0.05
2,N#Cc1ccc(C(=O)Nc2c(Cl)cccc2Cl)cc1,0.01
3,Cc1ccc(CCC2CCNCC2)cc1,-0.19
4,COc1cccc2cc(C(=O)C3=C(O)C(=O)N(CCCN4CCOCC4)C3c3ccncc3)oc12 (stereo not drawn),-0.05
5,Cc1noc(C)c1CC(=O)OCc1cn(-c2ccccc2)nc1-c1ccc(Cl)cc1,0.09
6,Cc1[nH]c2ccccc2c1C(=O)CN1CCCC(C(N)=O)C1 (stereo not drawn),0.09
7,O=C(Nc1cccnc1)c1ccc(F)cc1Br,-0.05
8,COc1ccc(OC)c(C=C2C(=O)NC(=S)NC2=O)c1,-0.11
9,Cc1ccc(C)c(NC(=O)CN(C)C(=O)Cn2cnc3scc(-c4ccc(C)s4)c3c2=O)c1,0.03
10,CC1(CN)CC1,-0.05
11,COc1ccc(C2C(C(=O)/C=C/c3ccco3)=C(O)C(=O)N2CCN2CCOCC2)cc1OC (stereo not drawn),-0.12
12,COc1cccc(C2C(C(=O)/C=C/c3ccco3)=C(O)C(=O)N2CCN2CCOCC2)c1OC (stereo not drawn),-0.12
13,Cc1c(Cl)cccc1NC(=O)CNc1cc(C(N)=O)c(Cl)cc1Cl,-0.03
14,N#CCOc1ccccc1/C=C1\Oc2cc(O)ccc2C1=O,-0.14
15,CCc1cccc(CC)c1NC(=O)C(c1ccccc1)c1ccccc1,0.18
16,Cc1c2c(c(C#N)c3nc4ccccc4n13)CCCC2,-0.09
17,Cc1nc(S)sc1CC(=O)N1CCCC(C)(O)C1 (stereo not drawn),-0.24
18,O=C(CSc1nc2ccccc2c(=O)n1CCCO)c1cc(F)ccc1F,-0.01
19,O=C(Nc1cccc(S(=O)(=O)N2CCOCC2)c1)C(c1ccccc1)c1ccccc1,0.16
20,NC(=O)C1CCN(c2ncnc3c2oc2ccccc23)CC1,-0.09
21,COc1cc(NC(=O)c2ccco2)c(C(=O)OCC(=O)NC(C)C23CC4CC(CC(C4)C2)C3)cc1OC (stereo not drawn),0.08
22,Cc1sc2ncnc(N3CCC(C(=O)N(C)CC(=O)Nc4ccccc4Cl)CC3)c2c1C,-0.09
23,CC1(CN)CCNC1 (stereo not drawn),-0.13
24,O=C1CCCN1Cc1ccc(-c2ccccc2CNC(=O)C23CC4CC(CC(C4)C2)C3)cc1,-0.05
25,Cc1c(C(=O)NCC2CCCc3ccccc32)[nH]c2c1C(=O)CC(C)(C)C2 (stereo not drawn),-0.11

# 4 compounds from above, ordered by length of the SMILES, rising:
row,Structure (SMILES),TSA(with NAD+) / Primary screening (TSA) / delta Tm (K)
10,CC1(CN)CC1,-0.05
9,N#Cc1c(Cn2nnc3ccccc3c2=O)cn2ccccc12,-0.09
18,O=C(CSc1nc2ccccc2c(=O)n1CCCO)c1cc(F)ccc1F,-0.01
10,CC(=O)NCCC(=O)C(C#N)C(=O)c1c[nH]c2cc(Cl)ccc12 (stereo not drawn),-0.18

# Next structures

row,Structure (SMILES),TSA(with NAD+) / Primary screening (TSA) / delta Tm (K)
1,O=C(COC(=O)C1=COCCO1)NC(c1ccccc1)c1ccccc1,-0.23
2,CC(C)c1ccccc1-n1c(SCC(=O)Nc2sccc2C(N)=O)nc2ccccc2c1=O,0.15
3,CCCC(C(=O)Nc1cc(C)on1)N1CCCC(c2nc(C)no2)C1 (stereo not drawn),0.08
4,COC(=O)c1ccccc1Nc1ccnc(Cl)n1,-0.11
5,CCOCCNc1ncnc2ccsc12,-0.03
6,Cc1nc(C(C)NC(=O)c2ccc(Cl)s2)sc1C(=O)O (stereo not drawn),-0.05
7,Cc1ccc2oc(C3(C)Cc4ccccc4C(=O)O3)cc(=O)c2c1 (stereo not drawn),-0.11
8,Cc1cccc(Cc2cnc(NC(=O)CCNC(=O)c3ccccc3Cl)s2)c1,0.03
9,N#CCn1cc(C(F)(F)F)cc(Cl)c1=O,-0.01
10,CCCC(N)CC (stereo not drawn),-0.14
11,COc1cc(C(C)=O)ccc1OCc1noc(C)n1,-0.23
12,O=C(COC(=O)c1ccc(S(=O)(=O)N2CCCc3ccccc32)cc1)NC12CC3CC(CC(C3)C1)C2,-0.11
13,COC(=O)CNC(=O)c1cccc(NC(=O)CCc2nnc(-c3ccc(Cl)cc3)o2)c1,-0.01
14,O=C1/C(=C/c2cccc(Br)c2)Oc2cc(O)ccc21,0.36
15,O=C(OCc1ccccc1)c1c[nH]c2ccccc12,-0.23
16,CC(SCc1cccc2ccccc12)C(=O)Nc1ncccn1 (stereo not drawn),-0.22
17,CC(N)CCN(C)C (stereo not drawn),-0.04
18,Cc1oc(C)c(C(=O)NCc2cccc(NC(=O)CN(C)C)c2)c1C,-0.05
19,Nc1nc(-c2cc3ccccc3oc2=O)nc2c1c(=O)oc1ccccc12,0.03
20,CCNc1ccnc(CSc2nc3ccsc3c(=O)n2C)c1,0.09
21,COc1cccc(CSc2nc3ccsc3c(=O)n2C)c1,-0.09
22,CCOc1cc(N2CCOCC2)c(OCC)cc1NC(=O)C1=COCCO1,-0.11
23,Cc1oc(-c2ccccc2)nc1CN1CCN(c2nncc3ccccc23)CC1,-0.01
24,Cc1c(Cl)cccc1NC(=O)CNC(N)=O,-0.05
25,COC(C)CN (stereo not drawn),-0.12

row,Structure (SMILES),TSA(with NAD+) / Primary screening (TSA) / delta Tm (K)
1,CCn1cc(C2CCN(C(=O)Cc3cnc4ccccc4c3)CC2)cn1,0.68
2,CCc1ncc(F)c(Cl)n1,-0.16
3,CN(C)C(=O)N1CCCC(C(=O)Nc2ccc3c(c2)-c2ccccc2C3)C1 (stereo not drawn),0.01
4,CCc1ccc(C(N)=S)cc1,-0.08
5,CN(c1ccccc1)S(=O)(=O)c1cccc(C(=O)Nc2ccccc2)c1,-0.01
6,Cc1nc(-c2ccccn2)[nH]c(=O)c1CC(=O)NCCc1cccc2cccnc12,0.28
7,O=C(CN1CCN(C(=O)c2ccc(-c3ccc(Cl)cc3)o2)CC1)Nc1cccc(F)c1,0.32
8,NC(=O)c1ccc(C(=O)OCC(=O)c2cc3ccccc3o2)cc1,-0.15
9,Cc1nc(-c2ccc(CCNC(=O)c3ccc(-n4cncn4)cc3)s2)cs1,-0.14
10,Cc1cc(C)nc(NS(=O)(=O)c2ccc(NN=C3C(=O)NC(=S)NC3=O)cc2)n1,0.09
11,CCCOc1ccc(C2C(C(=O)c3ccc(F)cc3)=C(O)C(=O)N2CCCN2CCOCC2)cc1 (stereo not drawn),0.06
12,Cc1ccccc1-c1cc(-c2ccccc2)c2cc([N+](=O)[O-])ccc2n1,0.16
13,COc1ccccc1S(=O)(=O)NCc1ccc(C(=O)NCC23CC4CC(CC(C4)C2)C3)cc1,0.09
14,Cn1c(Cn2nnc3ccccc3c2=O)nc2cc(Cl)ccc21,-0.01
15,Cc1cc2nc(N3CCC(CNC(=O)OC(C)(C)C)CC3)c3ccccc3n2n1,-0.28
16,CC(NS(=O)(=O)c1cccc(C(=O)OCC(=O)Nc2sccc2C#N)c1)C12CC3CC(CC(C3)C1)C2 (stereo not drawn),0.37
17,COc1ccc(CNC(=S)NC2CCCCC2)cc1OC,0.16
18,Nc1nc2cc(C(=O)O)ccc2[nH]1,-0.18
19,CN(c1ccccc1C(N)=O)S(=O)(=O)c1cccc(Cl)c1,-0.02
20,Cc1cc(C=C2C(=O)NC(=S)NC2=O)c(C)n1-c1ccccc1C(F)(F)F,-1.15
21,O=C1/C(=C/c2ccc(Br)cc2F)Cc2c(O)cccc21,0.11
22,NC(=O)c1cccc(COC(=O)c2ccc3[nH]c(C(F)F)nc3c2)c1,-0.11
23,COc1ccc(N(C)S(=O)(=O)c2cccc(C(=O)Nc3ccc(-n4cnnn4)cc3)c2)cc1,0.76
24,Cc1ccccc1-c1nnn(Cc2cc(=O)oc3c(C)c(C)ccc23)n1,-0.18
